Data from PubChem BioAssay AID270 (DTP/NCI, 2004).
The list shows only some results of the screen, not a fair sample: it is rich in T/C values a quarter to a half above the control, in often repeated tests (any T/C) and in doses without a T/C. Further doses and runs are listed elsewhere. T/C: endpoint of the treated group in % of that of the vehicle group. Schedule codes are those of the source, taken here to give the interval after Q, in days (D) or hours (H), and the number of doses after X. Some doses have a count of surviving animals in place of a T/C: the source files T/C as zero there, which appears to mark a toxic dose or a test without result, not a measured value. Some survivor counts are full or nearly so, which does not show that the dose was tolerated: survival well below the control is almost never listed, so the zero probably covers shortened survival too. Counts of survivors are from the toxicity check (mostly the fifth day) where no day follows; animals may have died later. Some entries hold several experiments; the values are given in rising order. For survival time, the PubChem record calls one and a half times the control and up active, and a quarter to a half above the control has no call in these data; cut-offs in other NCI protocols can differ. Some T/C values are followed by the survivors on the day toxicity was checked, most often the fifth; without a count, all were alive then.

Tested on: BDF1 mice, s.c. Lewis lung carcinoma, T/C %
Assay: NCI In Vivo Anticancer Drug Screen. Data for tumor model Lewis Lung Carcinoma (subcutaneous) in B6D2F1 (BDF1) mice
Procedure, shortened: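 Antitumor effect in vivo is scored from survival or tumor burden, reported as treated relative to vehicle controls.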

[1] = T/C endpoint: median survival time, dose: 50.0 mg/kg/injection, schedule: Q01DX009 (ip), vehicle: Klucel (hydroxypropylcellulose) (HPC), higher T/C = longer survival

SMILES: CC(=O)OC/C=C(C)/C=C/C=C(C)/C=C/C1=C(C)CCCC1(C)C
- T/C (T/C endpoint: median survival time, dose: 400.0 mg/kg/injection, schedule: Q01DX005 (ip), vehicle: saline with Tween-80, higher T/C = longer survival): 137 % of control
- T/C (T/C endpoint: median survival time, dose: 800.0 mg/kg/injection, schedule: Q01DX005 (ip), vehicle: saline with Tween-80, higher T/C = longer survival): 126 % of control
- T/C (T/C endpoint: median survival time, dose: 1600.0 mg/kg/injection, schedule: Q01DX005 (ip), vehicle: saline with Tween-80, higher T/C = longer survival): 132 % of control

SMILES: CCCCOP(=O)(OCCCC)c1ccccc1
- T/C (T/C endpoint: mean tumor weight, dose: 155.0 mg/kg/injection, schedule: Q01DX011 (ip), vehicle: other, evaluated on day 12, higher T/C = larger tumour): 147 % of control
- T/C (T/C endpoint: mean tumor weight, dose: 350.0 mg/kg/injection, schedule: Q01DX011 (ip), vehicle: other, evaluated on day 12, higher T/C = larger tumour): 126 % of control

SMILES: COC(=O)C(N)CCCCNc1ccc2c(cc1=O)C(NC(C)=O)CCc1cc(OC)c(OC)c(OC)c1-2 (stereo unspecified)
- survivor count (T/C endpoint: median survival time, dose: 100.0 mg/kg/injection, schedule: Q02DX009 (ip), vehicle: saline with Tween-80, higher T/C = longer survival): 10 of 10
- survivor count (T/C endpoint: median survival time, dose: 200.0 mg/kg/injection, schedule: Q02DX009 (ip), vehicle: saline with Tween-80, higher T/C = longer survival): 10 of 10
- survivor count (T/C endpoint: median survival time, dose: 400.0 mg/kg/injection, schedule: Q02DX009 (ip), vehicle: saline with Tween-80, higher T/C = longer survival): 10 of 10

SMILES: CNCc1ccccc1
- T/C (T/C endpoint: mean tumor weight, dose: 50.0 mg/kg/injection, schedule: Q01DX011 (ip), vehicle: carboxymethylcellulose (CMC), evaluated on day 12, higher T/C = larger tumour): 137 % of control
- survivor count (T/C endpoint: mean tumor weight, dose: 100.0 mg/kg/injection, schedule: Q01DX011 (ip), vehicle: carboxymethylcellulose (CMC), higher T/C = larger tumour): 3 of 6
- survivor count (T/C endpoint: mean tumor weight, dose: 200.0 mg/kg/injection, schedule: Q01DX011 (ip), vehicle: carboxymethylcellulose (CMC), higher T/C = larger tumour): 0 of 6 and 1 of 6

SMILES: CC(=O)OC(C)(C)/C=C/C(=O)[C@](C)(O)[C@H]1[C@H](O)C[C@@]2(C)[C@@H]3CC=C4[C@@H](CC[C@H](O)C4(C)C)[C@]3(CO)C(=O)C[C@]12C
- survivor count (T/C endpoint: mean tumor weight, dose: 0.86 mg/kg/injection, schedule: Q01DX011 (ip), vehicle: saline, higher T/C = larger tumour): 3 of 6
- survivor count (T/C endpoint: mean tumor weight, dose: 1.3 mg/kg/injection, schedule: Q01DX011 (ip), vehicle: saline, higher T/C = larger tumour): 2 of 6
- survivor count (T/C endpoint: mean tumor weight, dose: 2.0 mg/kg/injection, schedule: Q01DX011 (ip), vehicle: saline, higher T/C = larger tumour): 0 of 6

SMILES: CC1(C)N=C(N)N=C(N)N1c1cccc(Br)c1
- survivor count (T/C endpoint: mean tumor weight, dose: 25.0 mg/kg/injection, schedule: Q01DX011 (ip), vehicle: other, higher T/C = larger tumour): 3 of 6
- survivor count (T/C endpoint: mean tumor weight, dose: 100.0 mg/kg/injection, schedule: Q01DX011 (ip), vehicle: other, higher T/C = larger tumour): 0 of 6
- survivor count (T/C endpoint: mean tumor weight, dose: 200.0 mg/kg/injection, schedule: Q01DX011 (ip), vehicle: other, higher T/C = larger tumour): 0 of 6

SMILES: C/C=C1\CNC2Cc3c([nH]c4ccccc34)C(=O)CC1C2C(=O)OC (stereo unspecified)
- survivor count (T/C endpoint: mean tumor weight, dose: 200.0 mg/kg/injection, schedule: Q01DX011 (ip), vehicle: saline, higher T/C = larger tumour): 1 of 6

SMILES: C[C@H]1C[C@H]2[C@@H]3CC[C@](O)(C(=O)CO)[C@@]3(C)C[C@H](O)[C@]2(F)[C@@]2(C)C=CC(=O)C=C12
- survivor count (T/C endpoint: mean tumor weight, dose: 60.0 mg/kg/injection, schedule: Q01DX011 (sc), vehicle: steroid suspending solution, higher T/C = larger tumour): 3 of 6

SMILES: C1=CC2(OCCO2)C2CC=CC3(OCCO3)C2C1 (stereo unspecified)
- survivor count [1]: 10 of 10
- survivor count (T/C endpoint: median survival time, dose: 200.0 mg/kg/injection, schedule: Q01DX009 (ip), vehicle: Klucel (hydroxypropylcellulose) (HPC), higher T/C = longer survival): 2 of 10

SMILES: O=NN(CCCl)C(=O)NC1CSCSC1
- T/C (T/C endpoint: median survival time, dose: 7.0 mg/kg/injection, schedule: Q04DX004 (ip), vehicle: saline with Tween-80, higher T/C = longer survival): 137 % of control [8 of 9 alive]
- T/C (T/C endpoint: median survival time, dose: 10.0 mg/kg/injection, schedule: Q01DX001 (ip), vehicle: saline with Tween-80, higher T/C = longer survival): 125 % of control
- T/C (T/C endpoint: median survival time, dose: 15.0 mg/kg/injection, schedule: Q01DX001 (ip), vehicle: saline with Tween-80, higher T/C = longer survival): 140 % of control
- survivor count (T/C endpoint: median survival time, dose: 25.0 mg/kg/injection, schedule: Q01DX009 (ip), vehicle: saline with Tween-80, higher T/C = longer survival): 10 of 10
- survivor count (T/C endpoint: median tumor weight (est.), dose: 22.0 mg/kg/injection, schedule: Q01DX001 (ip), vehicle: saline with Tween-80, higher T/C = larger tumour): 4 of 10 on day 18

SMILES: CC(C)CCSc1nc(N)nc2nc[nH]c12
- survivor count (T/C endpoint: mean tumor weight, dose: 450.0 mg/kg/injection, schedule: Q01DX011 (ip), vehicle: other, higher T/C = larger tumour): 1 of 6
- survivor count (T/C endpoint: mean tumor weight, dose: 600.0 mg/kg/injection, schedule: Q01DX011 (ip), vehicle: other, higher T/C = larger tumour): 0 of 6

SMILES: S=P(NCCNP(=S)(N1CC1)N1CC1)(N1CC1)N1CC1
- survivor count [1]: 10 of 10

SMILES: CCCCS(=O)CC(CO)NC(=O)/C=C/c1c(C)[nH]c(=O)[nH]c1=O (stereo unspecified)
- T/C (T/C endpoint: median survival time, dose: 1.25 mg/kg/injection, schedule: Q01DX009 (ip), vehicle: water, higher T/C = longer survival): 128 % of control
- survivor count (T/C endpoint: median survival time, dose: 10.0 mg/kg/injection, schedule: Q01DX009 (ip), vehicle: water, higher T/C = longer survival): 8 of 10
